# Values quoted from earlier work in patent US4758551A (priority 1986, dated 1988).
# Sequences of proteins named here, by UniProt entry; tags and fusion partners are left off. Residues count along the entry.
# UniProt P07314, 1-379 limits assumed: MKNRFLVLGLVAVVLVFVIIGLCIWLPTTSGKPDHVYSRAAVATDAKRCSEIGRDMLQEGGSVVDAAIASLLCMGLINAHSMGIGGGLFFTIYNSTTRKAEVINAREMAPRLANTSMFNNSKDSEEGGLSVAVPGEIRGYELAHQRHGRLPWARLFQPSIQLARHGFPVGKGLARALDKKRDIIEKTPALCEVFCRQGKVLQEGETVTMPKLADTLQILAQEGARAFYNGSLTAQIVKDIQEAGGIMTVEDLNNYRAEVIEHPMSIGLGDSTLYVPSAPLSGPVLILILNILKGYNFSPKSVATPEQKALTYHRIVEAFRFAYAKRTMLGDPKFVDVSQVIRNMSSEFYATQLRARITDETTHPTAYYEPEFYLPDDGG
# UniProt P07314, 380-568 limits assumed: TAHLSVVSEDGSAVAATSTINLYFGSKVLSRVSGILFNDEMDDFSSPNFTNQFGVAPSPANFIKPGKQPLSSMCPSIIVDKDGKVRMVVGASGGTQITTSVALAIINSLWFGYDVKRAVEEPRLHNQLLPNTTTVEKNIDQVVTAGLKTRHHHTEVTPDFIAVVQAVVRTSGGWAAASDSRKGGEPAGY
# For at least one compound, name, drawing or mass did not settle the structure.
# Target: T1, purified rat kidney gamma-glutamyl transpeptidase (Rattus norvegicus, UniProt P07314)
# T1 construct: Highly purified rate kidney gamma-glutamyl transpeptidase was prepared by well known means; from tissue; host or cells: rat kidney
# Conditions: free amino acids (Tate 1974); cited from earlier work
smiles,measurement,value
N[C@@H](CC(=O)O)C(=O)O [aspartate],acceptor substrate of gamma-glutamyl transpeptidase,extremely poor acceptor substrates
